# Source: PubChem BioAssay AID1347076 (National Center for Advancing Translational Sciences (NCATS), 2019)
# The campaign covered roughly 400,000 compounds. About 13,000 (3.2%) were called active. Inconclusive means that the source gave no clear call. Such entries were picked first, then a sample of the others. Calls follow the shape of the dose curve; as a rule, active = well fitted cell-killing curve with a large enough effect; inconclusive = small, poorly fitted or top-dose-only effect, or effect the other way; inactive = flat fitted curve, though single readings scatter. Where the call is inconclusive, the potency comes from a doubtful curve fit.
# Test: qHTS assay for MDR1-selective chemotherapeutics: Primary screen using the drug-selected MDR subline cells KB-V1; also: nearly all actives have a fitted effect of over 60% in size
# Conditions: KB-V1 MDR cells viability, CellTiter-Glo, 72 h; activity change, negative = cytotoxicity: at 46.1 µM (top of the series)
# How it was run: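 Following 72 h at 37 degrees C with compound, KB-V1 cell viability was read by CellTiter-Glo luminescence, medium being phenol-red-free DMEM plus 10% FBS; concentration-response parameters came from normalized, curve-fitted qHTS data.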
# % is scaled to controls: 0 for no effect and ±100 for the full control effect; potency is read from the fitted curve at half-maximal effect.
Compound,Potency,"activity change, negative = cytotoxicity"
CSc1ccc(NC(=O)C2(C)CCN2C(=O)c2ccccc2CCc2ccccc2)cc1 (centres undefined),"inconclusive: 29.1 µM [cytotoxic, single point]",–
C[C@@H](C(=O)NCc1ccccn1)[C@@H]1C[C@@]1(C)[C@@H](NC(=O)OCc1ccccc1)c1ccccc1,"inconclusive: 32.6 µM [rising, single point]",–
Cc1ccccc1OCCN1CCC(Cc2ccccc2)CC1,–,inactive: -3.61%
CCOC(=O)N1C(=O)[C@@](c2ccc(Cl)cc2)(C(C)C)N1C(=O)OCC,"inconclusive: 29.1 µM [cytotoxic, single point]",–
CCn1c(SCC(=O)Nc2nc(C)c(C)s2)nnc1-c1cccs1,"inconclusive: 10.3 µM [cytotoxic, partial curve]",–
CCOC(=O)/C(=N/Nc1ccccc1)Sc1nnnn1-c1ccc(C)cc1,–,inactive: -22.6%
O=C(CN(CCc1ccccc1)C(=O)c1csnn1)NCc1ccc(F)cc1,"inconclusive: 20.6 µM [cytotoxic, single point]",–
CCN(CC)c1ccc(/C=N/NC(=O)c2ccc(Br)o2)cc1,"inconclusive: 29.1 µM [cytotoxic, single point]",–
COc1ccccc1C1N=C(Nc2nc3ccccc3o2)NC2=C1C(=O)CC(C)(C)C2 (centres undefined),"inconclusive: 29.1 µM [cytotoxic, single point]",–
Cc1cc(C)c(C#N)c(SCc2nnc(-c3ccccc3)o2)n1,active: 3.66 µM,–
CCCCn1c(N)c(N(Cc2ccccc2OC)C(=O)CCC(C)C)c(=O)[nH]c1=O,–,inactive: -7.53%
Cc1ccc(C)c(OCC(=O)Nc2ccc3c(c2)OCO3)c1C,"inconclusive: 20.6 µM [cytotoxic, single point]",–
Cc1ccsc1/C=C(\C(=O)c1ccc(OC(C)C)cc1)c1nc2ccccc2o1,"inconclusive: 13 µM [cytotoxic, partial curve]",–
CCOc1ccccc1NC(=O)c1cc(S(=O)(=O)NCc2ccco2)ccc1F,–,inactive: -11.9%
Cc1ccc(N(CC(=O)Nc2ccc(C)cn2)S(=O)(=O)c2c(C)nn(C)c2C)cc1,"inconclusive: 10.3 µM [cytotoxic, partial curve, poor fit]",–
CCOCCn1c(CN2CCC(Cc3ccccc3)CC2)nc2c1c(=O)n(C)c(=O)n2C,"inconclusive: 3.26 µM [cytotoxic, partial curve]",–
CC1CN(C(=O)c2cc(Br)c(Br)s2)CC(C)O1 (centres undefined),–,inactive: -18.4%
CCOc1ccc(-c2cn3c(n2)sc2cc(C(=O)NC4CCCc5ccccc54)ccc23)cc1 (centres undefined),"inconclusive: 32.6 µM [rising, single point]",–
CCOc1ccc(N(CC(=O)NC2CCCC2)S(=O)(=O)c2c(C)noc2C)cc1,–,inactive: -8.33%
Cc1ccc(Cl)c2sc(N3CCN(C(=O)c4ccco4)CC3)nc12,"inconclusive: 7.31 µM [cytotoxic, partial curve, poor fit]",–
Cc1ccccc1Nc1nc(Nc2ccccc2C)nc(SC2=NCCS2)n1,active: 16.4 µM,–
Clc1cccc(-c2nc3c4ccccc4ccn3c2Cc2ccsc2)c1,–,inactive: -1.16%

Compound,Potency,"activity change, negative = cytotoxicity"
CCOc1ccc(C(=O)NCC(=O)N2CCN(C/C=C/c3ccccc3)CC2)cc1OCC,"inconclusive: 8.2 µM [cytotoxic, partial curve]",–
CCCCc1cc(=O)oc2cc(C)cc(OC(C)C(=O)NC(Cc3c[nH]c4ccc(O)cc34)C(=O)O)c12 (centres undefined),"inconclusive: 29.1 µM [cytotoxic, single point]",–
CC(C)(C)N(Cc1ccccc1)C(=O)CSc1nc2ccccc2c(=O)[nH]1,"inconclusive: 29.1 µM [cytotoxic, single point]",–
COc1ccc(C(=O)/C=C/C(=O)N(CC(=O)NC2CCCCC2)CC2CCCO2)c(O)c1 (centres undefined),"inconclusive: 29.1 µM [cytotoxic, single point]",–
CCCc1c(C)nc2c(Br)cccc2c1Cl,"inconclusive: 29.1 µM [rising, single point]",–
Cc1cc(N2CCN(C(=O)c3ccco3)CC2)n2nc(-c3cccc(Cl)c3)cc2n1,"inconclusive: 18.4 µM [cytotoxic, partial curve, poor fit]",–
COc1ccc(NC(=O)C2CCN(S(C)(=O)=O)CC2)c(OC)c1,"inconclusive: 29.1 µM [rising, single point]",–
Cc1ccc(OCC(=O)Nc2nc(-c3ccccn3)cs2)c(C)c1,"inconclusive: 0.461 µM [cytotoxic, full curve, poor fit]",–
C=CCn1c(SCC(=O)N2CCOCC2)nc2sc(CC)cc2c1=O,active: 4.61 µM,–
CCOC(=O)N1CCN(S(=O)(=O)c2cc3c(cc2C)NC(=O)CO3)CC1,"inconclusive: 16.4 µM [cytotoxic, single point]",–
Cc1cccc(NC(=O)c2ccc(N(C)C3CCCCC3)c([N+](=O)[O-])c2)n1,active: 2.59 µM,–
CCc1ccc2[nH]c(=O)c(CN(CCN(CC)CC)C(=O)NC3CCCCC3)cc2c1,–,inactive: 6.71%
COc1ccc(-c2nnc(-c3ccc(N)cc3)o2)cc1,–,inactive: 1.35%
COc1ccc(Cl)cc1NC(=O)Cn1cc2c(n1)CCC(C)C2 (centres undefined),–,inactive: -16.3%
COCc1cc(CN2CCN(Cc3ccsc3)C(CCO)C2)ccc1OC (centres undefined),"inconclusive: 29.1 µM [cytotoxic, single point]",–
CCOC(=O)[C@]12CCC=C1N(Cc1ccc(Cl)cc1Cl)C(=O)[C@H](CC(=O)NCC1CCCCC1)C2,"inconclusive: 16.4 µM [cytotoxic, single point]",–
N#Cc1ccsc1NC(=O)CSc1nnnn1-c1ccc(O)cc1,"inconclusive: 7.31 µM [rising, partial curve]",–
Cc1ccccc1C(=O)NNC(=S)Nc1cccc(C(F)(F)F)c1,"inconclusive: 25.9 µM [cytotoxic, single point]",–
COC(=O)c1cccc(NC(=O)CCc2ccccc2)c1,"inconclusive: 25.9 µM [cytotoxic, partial curve, poor fit]",–
O=C(NCc1nnc(SCc2ccc(C(F)(F)F)cc2)n1-c1ccccc1)C12CC3CC(CC(C3)C1)C2,active: 16.4 µM,–
COc1ccccc1Sc1nc(-c2ccccn2)ncc1OC,–,inactive: 0.0641%
COc1ccccc1NC(=O)c1cc(Cl)nnc1Cl,"inconclusive: 1.64 µM [cytotoxic, single point]",–

# Part of the list above in order of molar mass, low to high.
Compound,Potency,"activity change, negative = cytotoxicity"
N#Cc1ccsc1NC(=O)CSc1nnnn1-c1ccc(O)cc1,"inconclusive: 7.31 µM [rising, partial curve]",–
C=CCn1c(SCC(=O)N2CCOCC2)nc2sc(CC)cc2c1=O,active: 4.61 µM,–
CC(C)(C)N(Cc1ccccc1)C(=O)CSc1nc2ccccc2c(=O)[nH]1,"inconclusive: 29.1 µM [cytotoxic, single point]",–
